Measured values: article PMC7857730
Results are given in words; binding and its absence hold for the method and conditions named. In cells and extracts the contact can be indirect. A yes stands for co-enrichment or nearness to the bait. Other partners may have been found. Sequences can lack the tags named with a protein.

Biological target: T1, Iml1-myc (S. pombe) (UniProt O74788)
T1 sequence: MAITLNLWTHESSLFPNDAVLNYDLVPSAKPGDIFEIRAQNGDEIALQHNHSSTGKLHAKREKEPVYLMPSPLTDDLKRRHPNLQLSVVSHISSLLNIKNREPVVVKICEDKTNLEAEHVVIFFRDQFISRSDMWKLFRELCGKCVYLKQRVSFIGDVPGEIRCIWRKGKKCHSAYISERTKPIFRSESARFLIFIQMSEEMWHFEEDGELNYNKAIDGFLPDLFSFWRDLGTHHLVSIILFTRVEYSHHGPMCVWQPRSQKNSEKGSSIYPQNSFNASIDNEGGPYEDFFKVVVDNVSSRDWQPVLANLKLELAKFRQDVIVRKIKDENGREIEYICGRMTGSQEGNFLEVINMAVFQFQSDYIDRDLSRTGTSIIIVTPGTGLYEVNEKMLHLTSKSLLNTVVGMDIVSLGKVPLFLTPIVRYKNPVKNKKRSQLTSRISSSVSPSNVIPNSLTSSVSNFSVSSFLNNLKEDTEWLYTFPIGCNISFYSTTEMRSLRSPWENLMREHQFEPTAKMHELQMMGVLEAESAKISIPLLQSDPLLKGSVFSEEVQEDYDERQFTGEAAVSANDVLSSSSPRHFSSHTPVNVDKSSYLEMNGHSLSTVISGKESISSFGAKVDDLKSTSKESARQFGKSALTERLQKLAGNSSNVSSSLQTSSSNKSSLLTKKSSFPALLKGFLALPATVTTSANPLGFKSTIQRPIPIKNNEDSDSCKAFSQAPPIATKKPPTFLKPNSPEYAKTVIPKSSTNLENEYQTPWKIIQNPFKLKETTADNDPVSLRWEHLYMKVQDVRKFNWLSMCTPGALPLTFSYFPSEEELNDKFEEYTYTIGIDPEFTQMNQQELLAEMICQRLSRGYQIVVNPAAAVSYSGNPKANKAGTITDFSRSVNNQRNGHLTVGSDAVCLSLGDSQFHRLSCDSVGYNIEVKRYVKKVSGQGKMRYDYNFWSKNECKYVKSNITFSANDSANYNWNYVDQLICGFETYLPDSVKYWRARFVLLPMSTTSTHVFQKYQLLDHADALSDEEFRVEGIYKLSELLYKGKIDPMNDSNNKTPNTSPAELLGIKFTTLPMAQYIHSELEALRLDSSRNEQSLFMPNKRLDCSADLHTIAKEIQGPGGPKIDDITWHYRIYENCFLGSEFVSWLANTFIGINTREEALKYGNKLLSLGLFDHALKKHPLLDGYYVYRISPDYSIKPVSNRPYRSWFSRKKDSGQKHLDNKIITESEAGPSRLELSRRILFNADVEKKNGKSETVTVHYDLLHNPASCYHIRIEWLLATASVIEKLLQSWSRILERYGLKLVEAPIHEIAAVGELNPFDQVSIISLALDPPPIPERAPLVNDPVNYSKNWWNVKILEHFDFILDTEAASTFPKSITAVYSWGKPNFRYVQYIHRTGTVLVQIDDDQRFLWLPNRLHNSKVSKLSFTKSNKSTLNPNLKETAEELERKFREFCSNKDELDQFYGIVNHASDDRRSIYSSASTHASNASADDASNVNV
Experiment: affinity purification with mass spectrometry

| binding | Substance |
| --- | --- |
| binds | FLAG-Npr3 (S. pombe) |
| binds | FLAG-Npr2 (S. pombe) |
